Measurements from the supplement of paper PMC7877785.
± gives the uncertainty stated by the source. Many entries were measured with a wide error.

Assay: self-splicing fitness, log relative to wild type (ln ratio); higher = more splicing; Tetrahymena group I intron in knt gene, E. coli kanamycin selection, DiMSum; sequences stand for … in CUCUCU…GGAGGGAAAAGUUAUCAGGCAUGCACCUGGUAGCUAGUCUUUAAACCAAUAGAUUGCAUCGGUUUAAAAGGCAAGACCGUCAAAUUGCGGGAAAGGGGUCAACAGCCGUUCAGUACCAAGUCUCAGGGGAAACUUUGAGAUGGCCUUGCAAAGGGUAUGGUAAUAAGCUGACGGACAUGGUCCUAACCACGCAGCCAAGUCCUAAGUCAACAGAUCUUCUGUUGAUAUGGAUGCAGUUCACAGACUAAAUGUCGGUCGGGGAAGAUGUAUUCUUCUCAUAAGAUAUAGUCGGACCUCUCCUUAAUGGGAGCUAGCGGAUGAAGUGAUGCAACACUGGAGCCGCUGGGAACUAAUUUGUAUGCGAAAGUAUAUUGAUUAGUUUUGGAGUACUCGUGGUCG
Procedure, shortened: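 Colonies from six replicate transformations of E. coli BL21(DE3) were pooled and amplicon-sequenced on an Illumina HiSeq 2500. The library placed an intron with all eight P1ex-region nucleotides randomised inside the knt kanamycin-resistance gene on pET-22b(+), and cells grew overnight at 37°C or 30°C on LB agar with or without 25 μg/mL kanamycin (plus 100 μg/mL carbenicillin, 50 μM IPTG, 0.2% rhamnose). Fitness is the DiMSum error-weighted combination of wild-type-normalised replicate fold changes, kanamycin versus none.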

Sequence	self-splicing fitness (ln) (30 °C)	self-splicing fitness (ln) (37 °C)
AUUCAGCAAUAUUACGAGAU	-2.7 ± 0.17	-0.722 ± 0.13
CCGUAGCAAUAUUACGUACU	-4.01 ± 0.74	
CGGGAGCAAUAUUACGUAAC		-4.3 ± 0.59
UCUGAGCAAUAUUACGCACA	-3.97 ± 0.6	
AGUGAGCAAUAUUACGCCGU		-1.85 ± 0.51
UGUGAGCAAUAUUACGUAAU	-4.75 ± 0.72	
AUGGAGCAAUAUUACGCAAA		-2.13 ± 0.55
CGCUAGCAAUAUUACGCGCA	-1.81 ± 0.17	-1.52 ± 0.17
GGAGAGCAAUAUUACGCCCA	-2.51 ± 0.65	
CUGUAGCAAUAUUACGGAGA	-2.5 ± 0.21	-3.56 ± 0.34
CCGUAGCAAUAUUACGGGAC	-4.49 ± 1	-3.91 ± 0.52
GUUUAGCAAUAUUACGCCGG		-0.384 ± 0.82
GGUAAGCAAUAUUACGCCGG	-3.09 ± 0.47	-1.93 ± 0.47
GAACAGCAAUAUUACGUAUU	-1.57 ± 0.063	-0.99 ± 0.075
AGUUAGCAAUAUUACGCUUA	-1.3 ± 0.15	-0.343 ± 0.16
CGUGAGCAAUAUUACGCGCU	-3.62 ± 0.6	
UGCUAGCAAUAUUACGUAGC	0.239 ± 1.2	-1.18 ± 0.56
GCGUAGCAAUAUUACGUUCC	-4.08 ± 0.73	
UGACAGCAAUAUUACGGUGC		-1.18 ± 0.53
UUUUAGCAAUAUUACGAGCC		-1.35 ± 0.5
ACGCAGCAAUAUUACGUCCC	0.0234 ± 0.64	-0.268 ± 0.48
CUCUAGCAAUAUUACGACGC	-2.47 ± 1.1	
GCGCAGCAAUAUUACGCAGC	-4.49 ± 0.59	
AGGGAGCAAUAUUACGAUCA	-3.83 ± 0.6	

Sequence	self-splicing fitness (ln) (30 °C)	self-splicing fitness (ln) (37 °C)
UGAGAGCAAUAUUACGGAGU		-3.1 ± 0.53
AGGGAGCAAUAUUACGACAC	-2.12 ± 0.57	
UAUUAGCAAUAUUACGGGAC	-2.48 ± 0.54	-2.37 ± 0.51
UCAUAGCAAUAUUACGCAGU	-4.03 ± 0.36	-3.4 ± 0.31
CCUUAGCAAUAUUACGCAAG	-4.96 ± 0.51	
GGAGAGCAAUAUUACGCCAA		-3.67 ± 0.73
AACUAGCAAUAUUACGUCAC		-2.54 ± 0.76
AGGAAGCAAUAUUACGUACG	-1.15 ± 0.11	-0.064 ± 0.1
UGUGAGCAAUAUUACGAAUC		-2.9 ± 0.61
UUGGAGCAAUAUUACGCCGG	-2.42 ± 0.82	
UACUAGCAAUAUUACGUCCC	-2.13 ± 0.52	-1.48 ± 0.56
AGGGAGCAAUAUUACGGUCC	-3.47 ± 1	-2.17 ± 0.65
UCCUAGCAAUAUUACGUUGU	-4.51 ± 0.59	-1.99 ± 0.29
GCAGAGCAAUAUUACGAGUC	-2.97 ± 0.25	-2.39 ± 0.32
UACGAGCAAUAUUACGUUGG	-4.53 ± 0.73	
UGACAGCAAUAUUACGCCGC		-2.73 ± 0.61
AUUCAGCAAUAUUACGACCC	0.119 ± 0.42	0.209 ± 0.5
AGUCAGCAAUAUUACGUUGA	-4.05 ± 0.51	
CUGGAGCAAUAUUACGACGU	-4.83 ± 0.51	
UUUAAGCAAUAUUACGAUCC	-3.57 ± 1	-1.14 ± 0.64
AGGAAGCAAUAUUACGAAUC		-4.08 ± 0.72
CUUUAGCAAUAUUACGACCU		-2.83 ± 0.61
GGCGAGCAAUAUUACGCGGC	-4.04 ± 0.73	-2.08 ± 0.58
GAAUAGCAAUAUUACGCCGC	-3.36 ± 0.6	

Sequence	self-splicing fitness (ln) (30 °C)	self-splicing fitness (ln) (37 °C)
AAGUAGCAAUAUUACGCCUC		-1.49 ± 0.61
AAACAGCAAUAUUACGCCAC	-4.07 ± 0.72	
CGCGAGCAAUAUUACGCGCG	-4.56 ± 0.51	
UUGAAGCAAUAUUACGCGAU		-2.36 ± 0.55
UAGGAGCAAUAUUACGGGCC	-3.31 ± 1	-2.25 ± 0.78
GUGGAGCAAUAUUACGCAGC	-1.71 ± 0.53	
ACCCAGCAAUAUUACGGCCU	-0.518 ± 0.052	0.0547 ± 0.067
CUUGAGCAAUAUUACGCCUU	-4.16 ± 0.59	
UAUUAGCAAUAUUACGCCUC	-3.46 ± 1.1	
CAGAAGCAAUAUUACGCUGA	-2.87 ± 0.18	-1.98 ± 0.15
GCAUAGCAAUAUUACGGCAA	-1.49 ± 0.18	-0.271 ± 0.17
UACUAGCAAUAUUACGAGCC		-1.72 ± 0.59
UAGGAGCAAUAUUACGAGGA		-2.2 ± 0.55
GGAUAGCAAUAUUACGGGAA	-2.46 ± 0.51	-1.52 ± 0.61
CUUAAGCAAUAUUACGGCAC		-3.19 ± 0.73
CGUUAGCAAUAUUACGAUAC	-3.94 ± 0.75	
GCUUAGCAAUAUUACGCUAC	0.239 ± 0.78	
GCUGAGCAAUAUUACGUCGG	-1.75 ± 0.55	
GGUAAGCAAUAUUACGGGCC		-0.705 ± 0.58
GCUGAGCAAUAUUACGCGGC	-3.48 ± 1.1	
CGCCAGCAAUAUUACGGUUC	-2.29 ± 0.11	-1.54 ± 0.11
CUAAAGCAAUAUUACGUCUC	-4.49 ± 0.72	
UUAUAGCAAUAUUACGCGUC	-3.63 ± 1	
UUCUAGCAAUAUUACGAGGC	-3.86 ± 1	

Sequence	self-splicing fitness (ln) (30 °C)	self-splicing fitness (ln) (37 °C)
UGAGAGCAAUAUUACGGAGA	-2.16 ± 0.65	-2.48 ± 1.1
GACAAGCAAUAUUACGUGCA	-0.912 ± 0.06	0.0273 ± 0.077
GCGUAGCAAUAUUACGCGAG	-4.09 ± 1	-2.54 ± 0.27
AUAGAGCAAUAUUACGUGCU		-2.11 ± 0.56
UCUGAGCAAUAUUACGUACG	-2.21 ± 0.79	
GGCUAGCAAUAUUACGCAGU		-2.37 ± 0.76
CCCUAGCAAUAUUACGAUCC	-4.2 ± 0.72	
UCAGAGCAAUAUUACGAGCC	-3.64 ± 0.6	
CGGUAGCAAUAUUACGUUUC		-0.927 ± 1.2
CAUGAGCAAUAUUACGUUUG	-3.57 ± 0.16	-2.89 ± 0.2
CUUAAGCAAUAUUACGCCAC	-1.52 ± 0.5	-1.78 ± 0.67
CAGUAGCAAUAUUACGCGAC	-4.08 ± 0.73	
UUAGAGCAAUAUUACGGGGG	-3.04 ± 0.31	-1.79 ± 0.36
CCGGAGCAAUAUUACGCUCG	-3.16 ± 0.28	-3.52 ± 0.73
ACUCAGCAAUAUUACGCGAC	-2.16 ± 0.14	-1.85 ± 0.15
GACCAGCAAUAUUACGCUCU	-0.6 ± 0.061	0.0283 ± 0.089
GUUCAGCAAUAUUACGACCC	-0.153 ± 0.53	-0.669 ± 0.65
UAUUAGCAAUAUUACGCUCC		-1.72 ± 0.85
UUGUAGCAAUAUUACGCAGC	-3.25 ± 0.74	-2.5 ± 0.77
CCAUAGCAAUAUUACGUCAC		-1.39 ± 1.2
UCCGAGCAAUAUUACGCUAC		-2.33 ± 0.63
CAAGAGCAAUAUUACGAGAU	-3.29 ± 0.29	-2.8 ± 0.28
CUCUAGCAAUAUUACGAAGC	-3.6 ± 0.73	
GCGUAGCAAUAUUACGGAAC	-1.45 ± 0.71	-0.432 ± 0.77

Sequence	self-splicing fitness (ln) (30 °C)	self-splicing fitness (ln) (37 °C)
CCUUAGCAAUAUUACGCCCA		-1.71 ± 0.72
UAUGAGCAAUAUUACGAAAA	0.526 ± 1.1	-2.08 ± 1.1
UUCGAGCAAUAUUACGUAAC	-3.36 ± 0.54	-1.46 ± 0.71
UACUAGCAAUAUUACGCUGC	-2.5 ± 0.91	
UCUUAGCAAUAUUACGAUAU	-4.46 ± 0.73	
UUUUAGCAAUAUUACGACUU	-1.64 ± 0.32	-1.14 ± 0.33
CCACAGCAAUAUUACGCGCC		-1.69 ± 0.81
GCCGAGCAAUAUUACGCUCC		-0.147 ± 0.68
UCGAAGCAAUAUUACGACCC		-1.69 ± 0.81
GUGUAGCAAUAUUACGAGCA	0.787 ± 0.61	-1.32 ± 0.51
CUUGAGCAAUAUUACGCAUU	-5.02 ± 0.59	
CCCGAGCAAUAUUACGCGAA	-3.27 ± 0.53	
CGUGAGCAAUAUUACGAUGA	-3.64 ± 0.23	-2.04 ± 0.17
GUGAAGCAAUAUUACGCACC	-4.63 ± 0.58	
UUUCAGCAAUAUUACGUUCU	-3.86 ± 0.52	
AUGCAGCAAUAUUACGCCCU	-0.387 ± 0.22	0.0709 ± 0.25
CUCAAGCAAUAUUACGUCCC		-2.98 ± 1.1
UCAAAGCAAUAUUACGCAAC		-2.99 ± 0.53
CACCAGCAAUAUUACGGUCU	-1.44 ± 0.044	-1.04 ± 0.057
UAGUAGCAAUAUUACGUCCA		-0.316 ± 0.56
CCAUAGCAAUAUUACGCUUC	-4.22 ± 0.73	
UCAGAGCAAUAUUACGCUCC	-3.7 ± 1.1	-2.39 ± 1.1
UUCAAGCAAUAUUACGAACC	-4.52 ± 1	-2.2 ± 1.1
GUUGAGCAAUAUUACGUCAA		-3.59 ± 0.52

Pulled one by one from the list above (three):
Sequence	self-splicing fitness (ln) (30 °C)	self-splicing fitness (ln) (37 °C)
AUUCAGCAAUAUUACGACCC	0.119 ± 0.42	0.209 ± 0.5
GAAUAGCAAUAUUACGCCGC	-3.36 ± 0.6	
GGUAAGCAAUAUUACGGGCC		-0.705 ± 0.58
